In assay [1] the target is plectin (mouse cerebellum) (mouse (endogenous in cerebellum)) (UniProt Q9QXS1). Nature of the assay: co-IP; plectin IP (anti-plectin antibody on Dynabeads, IgG as control) from WT mouse cerebellum lysate (5 mM EDTA, 0.1% Triton X-100 in PBS), overnight at 4°C; blot with anti-sacsin antibody.
Assay [2] addresses sacsin (human (endogenous in SH-SY5Y)) (UniProt Q9NZJ4). Nature of the assay: co-IP; sacsin IP (anti-sacsin antibody on Dynabeads) from SH-SY5Y lysate (5 mM EDTA, 0.1% Triton X-100 in PBS), overnight at 4°C; IgG or SACS-/- cells as control; blot with anti-myosin Va or anti-plectin antibody.
Assay [3] deals with T1, neurofilament light subunit (NFL) (human (endogenous in SH-SY5Y)) (UniProt P07196).
T1 sequence: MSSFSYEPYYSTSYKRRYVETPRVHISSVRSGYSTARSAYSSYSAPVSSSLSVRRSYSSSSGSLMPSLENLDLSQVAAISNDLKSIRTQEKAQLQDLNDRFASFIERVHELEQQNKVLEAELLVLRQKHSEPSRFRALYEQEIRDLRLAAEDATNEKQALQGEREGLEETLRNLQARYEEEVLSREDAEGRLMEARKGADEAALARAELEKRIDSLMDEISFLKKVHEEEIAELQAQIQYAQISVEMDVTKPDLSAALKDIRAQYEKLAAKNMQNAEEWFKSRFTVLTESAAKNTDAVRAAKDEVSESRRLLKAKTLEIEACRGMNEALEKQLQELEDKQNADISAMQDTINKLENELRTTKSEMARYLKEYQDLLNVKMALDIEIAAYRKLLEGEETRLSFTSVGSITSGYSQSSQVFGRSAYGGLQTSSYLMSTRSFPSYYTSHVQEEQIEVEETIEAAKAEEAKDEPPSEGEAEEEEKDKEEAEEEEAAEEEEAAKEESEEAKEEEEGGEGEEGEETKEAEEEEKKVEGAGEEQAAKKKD
As to the kind of experiment: co-IP; NFL IP (anti-NFL antibody on Dynabeads, IgG as control) from SH-SY5Y cells; Triton-insoluble pellet resuspended in TBS and 10% SDS, NF cytoskeletal fraction extracted by 1:4 dilution in NF extraction buffer; blot with anti-sacsin antibody.

Protein sequences, listed by entry. Tags and fused reporters are not part of them.
UniProt Q9NZJ4: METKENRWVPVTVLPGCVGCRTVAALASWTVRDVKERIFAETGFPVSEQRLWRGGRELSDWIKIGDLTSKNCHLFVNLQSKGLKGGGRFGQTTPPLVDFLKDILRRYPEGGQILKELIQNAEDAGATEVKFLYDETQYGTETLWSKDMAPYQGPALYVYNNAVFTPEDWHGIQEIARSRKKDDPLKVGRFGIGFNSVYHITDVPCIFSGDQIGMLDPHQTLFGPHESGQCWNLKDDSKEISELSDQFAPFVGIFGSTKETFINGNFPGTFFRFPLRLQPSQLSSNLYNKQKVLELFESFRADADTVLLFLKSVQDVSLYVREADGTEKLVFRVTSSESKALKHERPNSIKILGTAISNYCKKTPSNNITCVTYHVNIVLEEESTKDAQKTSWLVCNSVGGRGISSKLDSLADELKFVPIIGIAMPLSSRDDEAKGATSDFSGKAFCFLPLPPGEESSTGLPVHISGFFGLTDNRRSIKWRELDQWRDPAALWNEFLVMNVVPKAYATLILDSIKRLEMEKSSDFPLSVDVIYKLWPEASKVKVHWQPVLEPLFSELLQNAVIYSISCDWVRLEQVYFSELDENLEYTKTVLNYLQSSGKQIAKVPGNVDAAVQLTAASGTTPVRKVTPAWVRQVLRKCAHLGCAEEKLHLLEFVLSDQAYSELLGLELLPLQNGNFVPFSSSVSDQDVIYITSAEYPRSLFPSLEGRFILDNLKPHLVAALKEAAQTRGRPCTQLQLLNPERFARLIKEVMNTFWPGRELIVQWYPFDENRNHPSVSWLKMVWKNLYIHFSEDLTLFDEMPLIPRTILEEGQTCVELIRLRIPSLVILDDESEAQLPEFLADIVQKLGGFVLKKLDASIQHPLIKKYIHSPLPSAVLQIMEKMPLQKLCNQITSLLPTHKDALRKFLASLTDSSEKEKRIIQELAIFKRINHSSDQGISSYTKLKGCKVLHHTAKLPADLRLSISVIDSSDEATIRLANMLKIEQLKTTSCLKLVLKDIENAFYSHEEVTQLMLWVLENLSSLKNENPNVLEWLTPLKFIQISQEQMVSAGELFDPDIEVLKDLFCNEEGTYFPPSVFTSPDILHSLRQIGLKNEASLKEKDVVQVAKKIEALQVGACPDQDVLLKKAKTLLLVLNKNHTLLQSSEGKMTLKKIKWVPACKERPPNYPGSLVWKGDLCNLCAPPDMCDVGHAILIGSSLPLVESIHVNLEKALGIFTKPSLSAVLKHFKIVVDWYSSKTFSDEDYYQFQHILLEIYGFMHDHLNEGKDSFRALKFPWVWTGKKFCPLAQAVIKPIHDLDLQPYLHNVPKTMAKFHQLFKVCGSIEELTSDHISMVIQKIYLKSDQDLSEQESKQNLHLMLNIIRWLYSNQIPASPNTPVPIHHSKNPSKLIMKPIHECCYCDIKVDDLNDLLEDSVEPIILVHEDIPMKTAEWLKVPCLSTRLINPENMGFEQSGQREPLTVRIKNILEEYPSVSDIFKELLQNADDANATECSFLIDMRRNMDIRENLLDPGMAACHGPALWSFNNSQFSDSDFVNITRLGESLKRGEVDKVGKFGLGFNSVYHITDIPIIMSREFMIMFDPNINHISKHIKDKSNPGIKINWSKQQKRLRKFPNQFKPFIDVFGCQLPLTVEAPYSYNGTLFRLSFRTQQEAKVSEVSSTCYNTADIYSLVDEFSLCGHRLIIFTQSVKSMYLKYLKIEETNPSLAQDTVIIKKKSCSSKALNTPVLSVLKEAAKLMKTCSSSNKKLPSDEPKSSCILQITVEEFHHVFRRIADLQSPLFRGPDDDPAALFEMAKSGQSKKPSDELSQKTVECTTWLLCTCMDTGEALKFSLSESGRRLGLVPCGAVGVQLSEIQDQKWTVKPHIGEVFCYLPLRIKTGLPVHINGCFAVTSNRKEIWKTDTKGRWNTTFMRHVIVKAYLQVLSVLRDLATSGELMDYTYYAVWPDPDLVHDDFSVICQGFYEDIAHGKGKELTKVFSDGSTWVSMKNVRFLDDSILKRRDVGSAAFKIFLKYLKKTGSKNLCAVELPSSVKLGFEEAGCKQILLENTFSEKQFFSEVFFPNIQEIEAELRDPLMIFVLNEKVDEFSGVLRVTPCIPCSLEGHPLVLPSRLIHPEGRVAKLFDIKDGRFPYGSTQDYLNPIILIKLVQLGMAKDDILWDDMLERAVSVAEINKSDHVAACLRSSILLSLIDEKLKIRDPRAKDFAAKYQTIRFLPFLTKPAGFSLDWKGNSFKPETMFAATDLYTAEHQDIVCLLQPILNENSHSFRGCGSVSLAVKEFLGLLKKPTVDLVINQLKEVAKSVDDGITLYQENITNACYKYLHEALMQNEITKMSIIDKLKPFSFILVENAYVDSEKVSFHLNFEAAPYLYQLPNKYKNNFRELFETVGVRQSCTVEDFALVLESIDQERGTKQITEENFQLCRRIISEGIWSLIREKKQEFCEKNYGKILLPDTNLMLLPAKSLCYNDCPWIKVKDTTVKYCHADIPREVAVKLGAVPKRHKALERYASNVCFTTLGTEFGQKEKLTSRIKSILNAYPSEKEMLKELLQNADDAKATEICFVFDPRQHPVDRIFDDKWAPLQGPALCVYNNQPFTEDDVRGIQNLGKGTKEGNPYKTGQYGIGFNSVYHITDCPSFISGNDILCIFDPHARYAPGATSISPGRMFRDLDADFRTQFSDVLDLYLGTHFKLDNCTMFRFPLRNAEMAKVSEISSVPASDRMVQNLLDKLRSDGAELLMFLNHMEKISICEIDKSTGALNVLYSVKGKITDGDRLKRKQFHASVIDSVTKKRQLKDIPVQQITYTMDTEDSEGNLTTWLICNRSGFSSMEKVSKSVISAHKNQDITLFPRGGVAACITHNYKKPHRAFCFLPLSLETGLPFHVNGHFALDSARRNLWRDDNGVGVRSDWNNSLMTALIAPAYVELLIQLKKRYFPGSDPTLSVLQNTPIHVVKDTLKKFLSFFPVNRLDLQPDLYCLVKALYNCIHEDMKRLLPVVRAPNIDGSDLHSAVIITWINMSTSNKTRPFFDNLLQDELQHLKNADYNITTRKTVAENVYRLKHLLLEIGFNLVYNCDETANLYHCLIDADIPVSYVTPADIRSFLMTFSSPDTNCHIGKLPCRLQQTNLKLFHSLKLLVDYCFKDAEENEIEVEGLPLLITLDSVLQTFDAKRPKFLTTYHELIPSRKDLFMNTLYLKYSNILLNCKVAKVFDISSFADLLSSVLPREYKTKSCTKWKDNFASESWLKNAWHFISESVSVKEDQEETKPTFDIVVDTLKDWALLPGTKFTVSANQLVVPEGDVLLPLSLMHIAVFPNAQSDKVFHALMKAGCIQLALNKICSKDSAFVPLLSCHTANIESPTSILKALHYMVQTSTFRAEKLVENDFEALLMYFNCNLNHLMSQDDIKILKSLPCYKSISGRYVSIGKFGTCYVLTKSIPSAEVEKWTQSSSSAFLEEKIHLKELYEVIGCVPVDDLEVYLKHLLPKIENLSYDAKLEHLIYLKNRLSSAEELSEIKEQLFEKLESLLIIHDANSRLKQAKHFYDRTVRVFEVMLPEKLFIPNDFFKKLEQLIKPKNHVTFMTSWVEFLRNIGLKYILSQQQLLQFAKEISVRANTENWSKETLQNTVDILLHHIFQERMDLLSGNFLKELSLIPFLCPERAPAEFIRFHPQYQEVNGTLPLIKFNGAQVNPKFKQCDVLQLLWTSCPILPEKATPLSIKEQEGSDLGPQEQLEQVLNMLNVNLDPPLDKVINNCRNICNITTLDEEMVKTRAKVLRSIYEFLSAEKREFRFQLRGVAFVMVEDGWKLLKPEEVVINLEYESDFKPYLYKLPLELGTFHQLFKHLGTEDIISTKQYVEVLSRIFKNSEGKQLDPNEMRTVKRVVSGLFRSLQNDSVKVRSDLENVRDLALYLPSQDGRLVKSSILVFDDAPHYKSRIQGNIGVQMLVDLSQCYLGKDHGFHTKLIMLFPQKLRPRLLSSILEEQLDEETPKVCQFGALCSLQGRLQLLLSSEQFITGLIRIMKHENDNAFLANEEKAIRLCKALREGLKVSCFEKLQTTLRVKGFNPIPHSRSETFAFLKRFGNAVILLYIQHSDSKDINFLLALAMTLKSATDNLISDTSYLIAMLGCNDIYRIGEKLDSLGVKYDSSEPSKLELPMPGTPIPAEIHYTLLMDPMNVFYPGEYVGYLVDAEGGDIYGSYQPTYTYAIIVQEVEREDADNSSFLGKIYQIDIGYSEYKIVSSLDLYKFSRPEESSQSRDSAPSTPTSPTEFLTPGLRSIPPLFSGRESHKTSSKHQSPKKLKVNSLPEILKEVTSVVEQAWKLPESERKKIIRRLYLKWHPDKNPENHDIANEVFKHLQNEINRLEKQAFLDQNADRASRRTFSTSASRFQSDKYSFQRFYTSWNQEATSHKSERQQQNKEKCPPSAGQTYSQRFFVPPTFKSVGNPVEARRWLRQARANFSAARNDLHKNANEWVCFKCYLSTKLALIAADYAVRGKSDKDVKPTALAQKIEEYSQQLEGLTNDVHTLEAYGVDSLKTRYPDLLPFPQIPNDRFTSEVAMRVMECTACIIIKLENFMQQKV
UniProt Q9Y4I1: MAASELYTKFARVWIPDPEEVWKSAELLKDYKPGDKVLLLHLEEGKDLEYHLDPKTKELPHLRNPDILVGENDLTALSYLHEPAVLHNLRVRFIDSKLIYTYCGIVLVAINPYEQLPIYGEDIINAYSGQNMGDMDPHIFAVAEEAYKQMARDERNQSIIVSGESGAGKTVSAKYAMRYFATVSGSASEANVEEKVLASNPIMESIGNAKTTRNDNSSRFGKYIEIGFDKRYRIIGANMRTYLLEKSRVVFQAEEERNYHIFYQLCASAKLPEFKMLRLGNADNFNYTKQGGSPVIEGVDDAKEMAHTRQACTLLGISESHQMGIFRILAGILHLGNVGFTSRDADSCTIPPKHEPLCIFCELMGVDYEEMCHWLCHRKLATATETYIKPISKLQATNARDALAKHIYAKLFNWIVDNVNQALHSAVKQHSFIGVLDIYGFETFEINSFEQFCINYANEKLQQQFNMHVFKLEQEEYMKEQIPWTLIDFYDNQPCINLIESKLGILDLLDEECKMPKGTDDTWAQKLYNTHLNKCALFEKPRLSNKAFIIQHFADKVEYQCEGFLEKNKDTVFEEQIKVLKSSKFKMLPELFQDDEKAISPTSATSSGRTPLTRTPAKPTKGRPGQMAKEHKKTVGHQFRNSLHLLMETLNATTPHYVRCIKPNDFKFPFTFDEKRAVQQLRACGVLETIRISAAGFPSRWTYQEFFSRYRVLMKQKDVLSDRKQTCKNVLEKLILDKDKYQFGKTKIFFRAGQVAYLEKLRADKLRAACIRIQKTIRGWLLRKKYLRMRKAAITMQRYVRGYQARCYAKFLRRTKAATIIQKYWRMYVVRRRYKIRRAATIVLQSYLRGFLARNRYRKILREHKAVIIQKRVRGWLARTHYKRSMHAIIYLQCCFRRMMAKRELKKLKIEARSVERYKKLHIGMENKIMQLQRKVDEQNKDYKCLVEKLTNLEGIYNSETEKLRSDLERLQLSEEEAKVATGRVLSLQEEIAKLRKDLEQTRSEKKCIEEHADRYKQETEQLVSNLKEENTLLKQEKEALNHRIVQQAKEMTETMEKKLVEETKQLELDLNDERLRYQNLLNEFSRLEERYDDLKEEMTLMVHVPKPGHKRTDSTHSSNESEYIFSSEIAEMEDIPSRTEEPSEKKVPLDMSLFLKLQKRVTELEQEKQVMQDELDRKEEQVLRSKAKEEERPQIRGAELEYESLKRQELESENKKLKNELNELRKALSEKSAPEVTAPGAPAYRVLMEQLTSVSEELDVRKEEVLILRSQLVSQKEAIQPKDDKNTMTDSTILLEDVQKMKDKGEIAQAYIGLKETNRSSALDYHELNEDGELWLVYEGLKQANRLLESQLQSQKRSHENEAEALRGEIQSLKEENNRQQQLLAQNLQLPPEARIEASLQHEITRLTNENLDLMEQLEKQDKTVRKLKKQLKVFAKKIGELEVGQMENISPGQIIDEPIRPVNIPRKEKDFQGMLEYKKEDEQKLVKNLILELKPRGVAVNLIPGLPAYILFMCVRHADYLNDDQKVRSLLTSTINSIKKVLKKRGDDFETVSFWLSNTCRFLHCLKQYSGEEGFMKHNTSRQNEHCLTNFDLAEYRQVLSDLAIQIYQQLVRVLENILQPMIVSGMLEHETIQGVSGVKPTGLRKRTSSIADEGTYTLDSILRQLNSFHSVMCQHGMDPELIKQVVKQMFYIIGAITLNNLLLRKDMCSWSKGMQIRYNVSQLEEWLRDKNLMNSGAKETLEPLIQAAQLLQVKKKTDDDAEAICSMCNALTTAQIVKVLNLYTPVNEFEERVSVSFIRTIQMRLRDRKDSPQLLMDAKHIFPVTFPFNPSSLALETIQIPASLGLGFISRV

No constants are given. Whether binding was seen depends on the method and setting. Binding seen in cells or lysates may run through a third protein. Some results given as binding are weak or reduced against the parent protein; the word gives no strength.

Take “sacsin (mouse cerebellum) (from UniProt Q9JLC8 1-4582)”: in assay [1], the binding entry is on record as “binds”.

Consider myosin Va (from UniProt Q9Y4I1 1-1855), for which the binding entry in assay [2] was “binds”.

For the substance plectin (from UniProt Q15149 1-4684), the binding result in assay [2] was “binds”.

In the case of sacsin (from UniProt Q9NZJ4 1-4579), the binding result in assay [3] was “binds”.

These data come from publication PMC10371240.
